# Laboratory results reported in PMC5681266.
# These are yes or no findings as the source states them, for the method shown. Binding seen in cells or lysates may run through a third protein. Some binding calls cover weakened binding; strength is not graded here.
# B1: chemokine (C-X-C) motif receptor (CXCR) 4, P61073 1-352 (receptor)
# chain: MEGISIYTSDNYTEEMGSGDYDSMKEPCFREENANFNKIFLPTIYSIIFLTGIVGNGLVILVMGYQKKLRSMTDKYRLHLSVADLLFVITLPFWAVDAVANWYFGNFLCKAVHVIYTVNLYSSVLILAFISLDRYLAIVHATNSQRPRKLLAEKVVYVGVWIPALLLTIPDFIFANVSEADDRYICDRFYPNDLWVVVFQFQHIMVGLILPGIVILSCYCIIISKLSHSKGHQKRKALKTTVILILAFFACWLPYYIGISIDSFILLEIIKQGCEFENTVHKWISITEALAFFHCCLNPILYAFLGAKFKTSAQHALTSVSRGSSLKILSKGKRGGHSSVSTESESSSFHSS
# Target: atypical chemokine receptor 3 (human (endogenous in hPPAEC)), P25106
# Assay: proximity ligation; hPPAEC; mouse anti-ACKR3 and goat anti-CXCR4; control: omission of one secondary antibody
# Settings: remark: other sources report otherwise
binder,measurement,value
B1,binding,binds
